Test results reported in article PMC7819943, “Rice protein-binding microarrays: a tool to detect cis-acting elements near promoter regions in rice”.
Some of the results follow.

target: T1, OsSMF1 (Oryza sativa, UniProt Q6ZLB0 1-436); assay: protein-binding microarray (RPBM); PBS, 2% BSA, 51.3 ng/ul salmon testes DNA, 50 uM zinc acetate, 200 nM TF, 25 C, 1 h; high values mean tight binding; settings: protein: recombinant; tags: N-terminal polyhistidine and DsRed monomer fusion (pET32a); chain copies: 2; label: CyDye5-dUTP incorporated in the synthesized complementary strand; 3' TTTTT single-stranded linker to array surface; dsDNA, one strand shown
T1 sequence: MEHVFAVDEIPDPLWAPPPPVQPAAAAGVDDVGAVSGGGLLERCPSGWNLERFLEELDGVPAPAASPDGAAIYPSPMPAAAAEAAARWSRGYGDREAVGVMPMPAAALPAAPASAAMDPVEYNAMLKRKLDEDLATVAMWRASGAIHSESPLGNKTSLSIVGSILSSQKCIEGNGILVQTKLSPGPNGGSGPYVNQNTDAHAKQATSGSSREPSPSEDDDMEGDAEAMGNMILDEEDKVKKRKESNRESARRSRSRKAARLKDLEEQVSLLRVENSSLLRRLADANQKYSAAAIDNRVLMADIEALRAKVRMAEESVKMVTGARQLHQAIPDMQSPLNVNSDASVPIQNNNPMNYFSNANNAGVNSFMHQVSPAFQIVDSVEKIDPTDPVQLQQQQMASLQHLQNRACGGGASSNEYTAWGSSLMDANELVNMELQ
Method in brief: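 Transcription factors, each fused N-terminally to a polyhistidine tag and DsRed, were expressed in E. coli BL21-CodonPlus and purified on Ni–NTA. A custom Agilent array was made double-stranded by primer extension with Cy5-dUTP and blocked with 2% BSA. It was incubated with 200 nM protein in PBS, 2% BSA, salmon testes DNA and 50 µM zinc acetate at 25 °C for 1 h, then washed. The binding signal is per-feature fluorescence intensity (arbitrary units) read on an Axon 4000B scanner.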

Sequence | binding signal
GAGCTTTATATCACAACTCACCAAGGCCCCACGTCGAGTACGGAGTCACCTAGTGCAG | 4130 fluorescence intensity (a.u.)
CGGCGTGATTCTCCGTGTCTGCTGCTCTGCTCCACGTATTCGGAGTCACCTAGTGCAG | 7040 fluorescence intensity (a.u.)
TATTCCTATTTGGACTCTCCTTTTCTTTTCTAATTTTGGACGGAGTCACCTAGTGCAG | 3780 fluorescence intensity (a.u.)
GTGGTGGCTGCGGCTGCGCCATGTGGGTGTGGCATTGTTGCGGAGTCACCTAGTGCAG | 3690 fluorescence intensity (a.u.)
GATGTCTTTAAAGAGGATTATATGAAATTTGAGATGAAATCGGAGTCACCTAGTGCAG | 3610 fluorescence intensity (a.u.)
TGCCTGCCTCCACCTCACCTGTCTGCCGCGCGCCAAATATCGGAGTCACCTAGTGCAG | 5320 fluorescence intensity (a.u.)
TTTCTTCTTTGCGTCGTCATCGTCGTTCTTCGTCAAGCAGCGGAGTCACCTAGTGCAG | 9010 fluorescence intensity (a.u.)
CAGACCAGCAGATTGATACCAACAAATTTATTGAGCAATGCGGAGTCACCTAGTGCAG | 3410 fluorescence intensity (a.u.)
TGTTTTGCAACTTCACCACGTCGGCAATTACCGCAACAAGCGGAGTCACCTAGTGCAG | 6530 fluorescence intensity (a.u.)
TCCATATGGAATTGCTGACTTTGCTGTGTTAGGGATTAATCGGAGTCACCTAGTGCAG | 3730 fluorescence intensity (a.u.)
GGAGTGACTTGGACAATCTGTTTACGTCATCTTATTATACCGGAGTCACCTAGTGCAG | 10600 fluorescence intensity (a.u.)
AGCGGACTCCTCGTCGCGGCGTCGTCCCGGCCCACGAAAGCGGAGTCACCTAGTGCAG | 3200 fluorescence intensity (a.u.)
CGCCTCCTCCTCCGGCGCCACGTAAATGGCCGCTCCAAGCCGGAGTCACCTAGTGCAG | 5390 fluorescence intensity (a.u.)
ACATCATATAACGTGAAACGGAGGGAGGATATATAGTCAGCGGAGTCACCTAGTGCAG | 3510 fluorescence intensity (a.u.)
GCGAGGGGTGGTGCGACTGCATCATCGCGGCGGCGGCGGCCGGAGTCACCTAGTGCAG | 3650 fluorescence intensity (a.u.)
CGGCAATCCGGTGGTGCGTGACGTCGGCCATAGCGGTAGACGGAGTCACCTAGTGCAG | 6070 fluorescence intensity (a.u.)
TTGTCTCCATCTGCTATGATCTTGCACGTGGCAAGCAAGTCGGAGTCACCTAGTGCAG | 7330 fluorescence intensity (a.u.)
TTAAGAGCGGGTCGATGACTGGATGTGTTCCGGATTAGTACGGAGTCACCTAGTGCAG | 5370 fluorescence intensity (a.u.)
ACTGTTATTCCTACAGGCCAAAGCTGACCTAACCAATTCACGGAGTCACCTAGTGCAG | 46800 fluorescence intensity (a.u.)
ACGAGAGCGCGTACAGTAGCTGATGGTGTGGAAACAGGGCCGGAGTCACCTAGTGCAG | 3280 fluorescence intensity (a.u.)
CCCAAGTGGCGTCAGTGCGTCACCACCATTAACGTACGAGCGGAGTCACCTAGTGCAG | 4980 fluorescence intensity (a.u.)
GGTACGGCATCCATGTGTGCAAATCATCATCCGCATGCAACGGAGTCACCTAGTGCAG | 3660 fluorescence intensity (a.u.)
TTGCTTAACATATGCAAGTCGTTTCGGGGAGAGGGGCAGACGGAGTCACCTAGTGCAG | 3790 fluorescence intensity (a.u.)

As entered above:
In binding signal, GTGGTGGCTGCGGCTGCGCCATGTGGGTGTGGCATTGTTGCGGAGTCACCTAGTGCAG has 3690 fluorescence intensity (a.u.)
In binding signal, GGAGTGACTTGGACAATCTGTTTACGTCATCTTATTATACCGGAGTCACCTAGTGCAG has 10600 fluorescence intensity (a.u.)
